# Assay results from the supplement of paper PMC8728848.
# The other results are listed elsewhere or left out.
# B1: TAL6-6LysM (Trichoderma atroviride) (protein)
# chain: AASKLGVPQPAQRDQVNCQLYAVQPNDNCIDISSKNNITYAQLLSWNPSLSSTCSNLASLNSSSICVSNPKGTFSISSNTVGATDIATTTAPVPSPTLDQTTSRCAKYYQVSDGDDCSHLTAQFAITLKDFIFLNSEVWQNCTNLELGYYYCVEPVGYISTYPGYLPTATTKPFNQTSATSLPYDGDPWARFSSNSSVIPIANGTRVDCYSYVYVKNLTENLFADCWNMASMYEITREELVLWNPSLGNDGSSGSNLSGAEASQVASSIAIPTTAPSSITTNLYTYPCTVAANISYCVALVSSTGALPTNTAPPGPHASGEISNCTAWFAPEAYDTCKSILDIFEMSFANFYKMNPSVGPDCSGLAVGTNYCVSTYPNGEDPNDDWDGDDSIPSISPTGIITPTPTQSGMVSNCNKFYDVHSNDGCSAIASSQHVDLSSLYKWNPAIKTDCSGLQASVYVCIGILTTSMSTTSKLPTTTSKPSTTSKPPTGITTPTPTQSGMVKNCNKFYDVHSGDGCSAIASSQKVNLSSFYLWNPAVKTDCSGLQASVFVCIGTLTTSMSTTTSKLPTTTSKPSTTSKPPTGIITPTPTQNGMVKNCNKFYDVHSGDGCSAIASSQKVNLSSFYLWNPAVKTDCSGLQASVFVCVGTATTTTAAGITTPTPTQSGMVSGCNKFYDVHAGDGCSAIASSQKIALSSLYKWNPAVKTDCSGLQASVYICIGVGNAAAARVTGAAASFLEQKLISEEDLNSAVDHHHHHH
# Key:
# Assay in all cases: glycan array binding signal (z-score within array); higher = stronger binding
# Settings in all cases: glycan notation: IUPAC condensed, linker removed
# [1] = biological target: Gal(b1-4)GlcNAc(b1-3)Gal(b1-4)GlcNAc(b1-2)[Gal(b1-4)GlcNAc(b1-3)Gal(b1-4)GlcNAc(b1-6)]Man(a1-6)[Gal(b1-4)GlcNAc(b1-3)Gal(b1-4)GlcNAc(b1-2)Man(a1-3)]Man(b1-4)GlcNAc(b1-4)GlcNAc
# Method in brief: (§1)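 Columns mapping to the same glycan were averaged after glycan names were converted to IUPAC-condensed notation. The data come from 3228 arrays in the Consortium for Functional Glycomics database, limited to those with an available protein sequence. Binding is reported as a within-array Z-score averaged across arrays of one protein sequence and across linkers.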
# [2] = biological target: Gal(b1-4)GlcNAc(b1-3)Gal(b1-4)GlcNAc(b1-2)[Gal(b1-4)GlcNAc(b1-3)Gal(b1-4)GlcNAc(b1-6)]Man(a1-6)[Gal(b1-4)GlcNAc(b1-3)Gal(b1-4)GlcNAc(b1-2)Man(a1-3)]Man(b1-4)GlcNAc(b1-4)[Fuc(a1-6)]GlcNAc
# Method in brief: as §1
# [3] = biological target: Gal(b1-4)GlcNAc(b1-3)Gal(b1-4)GlcNAc(b1-3)Gal(b1-4)GlcNAc
# Method in brief: as §1
# [4] = biological target: Gal(b1-4)GlcNAc(b1-3)Gal(b1-4)GlcNAc(b1-3)Gal(b1-4)GlcNAc(b1-2)Man(a1-3)[Gal(b1-4)GlcNAc(b1-3)Gal(b1-4)GlcNAc(b1-3)Gal(b1-4)GlcNAc(b1-2)Man(a1-6)]Man(b1-4)GlcNAc(b1-4)GlcNAc
# Method in brief: as §1
# [5] = biological target: Gal(b1-4)GlcNAc(b1-3)Gal(b1-4)GlcNAc(b1-3)Gal(b1-4)GlcNAc(b1-2)Man(a1-3)[Gal(b1-4)GlcNAc(b1-3)Gal(b1-4)GlcNAc(b1-3)Gal(b1-4)GlcNAc(b1-2)Man(a1-6)]Man(b1-4)GlcNAc(b1-4)[Fuc(a1-6)]GlcNAc
# Method in brief: as §1
# [6] = biological target: Gal(b1-4)GlcNAc(b1-3)Gal(b1-4)GlcNAc(b1-3)Gal(b1-4)GlcNAc(b1-2)[Gal(b1-4)GlcNAc(b1-3)Gal(b1-4)GlcNAc(b1-3)Gal(b1-4)GlcNAc(b1-6)]Man(a1-6)[Gal(b1-4)GlcNAc(b1-3)Gal(b1-4)GlcNAc(b1-3)Gal(b1-4)GlcNAc(b1-2)Man(a1-3)]Man(b1-4)GlcNAc(b1-4)[Fuc(a1-6)]GlcNAc
# Method in brief: as §1
# [7] = biological target: Gal(b1-4)GlcNAc(b1-3)Gal(b1-4)GlcNAc(b1-3)Gal(b1-4)GlcNAc(b1-3)Gal(b1-4)GlcNAc(b1-2)Man(a1-3)[Gal(b1-4)GlcNAc(b1-3)Gal(b1-4)GlcNAc(b1-3)Gal(b1-4)GlcNAc(b1-3)Gal(b1-4)GlcNAc(b1-2)Man(a1-6)]Man(b1-4)GlcNAc(b1-4)GlcNAc
# Method in brief: as §1
# [8] = biological target: Gal(b1-4)GlcNAc(b1-3)Gal(b1-4)GlcNAc(b1-3)Gal(b1-4)GlcNAc(b1-3)Gal(b1-4)GlcNAc(b1-2)Man(a1-3)[Gal(b1-4)GlcNAc(b1-3)Gal(b1-4)GlcNAc(b1-3)Gal(b1-4)GlcNAc(b1-3)Gal(b1-4)GlcNAc(b1-2)Man(a1-6)]Man(b1-4)GlcNAc(b1-4)[Fuc(a1-6)]GlcNAc
# Method in brief: as §1
# [9] = biological target: Gal(b1-4)GlcNAc(b1-3)Gal(b1-4)GlcNAc(b1-3)Gal(b1-4)GlcNAc(b1-3)Gal(b1-4)GlcNAc(b1-2)[Gal(b1-4)GlcNAc(b1-3)Gal(b1-4)GlcNAc(b1-3)Gal(b1-4)GlcNAc(b1-3)Gal(b1-4)GlcNAc(b1-6)]Man(a1-6)[Gal(b1-4)GlcNAc(b1-3)Gal(b1-4)GlcNAc(b1-3)Gal(b1-4)GlcNAc(b1-3)Gal(b1-4)GlcNAc(b1-2)Man(a1-3)]Man(b1-4)GlcNAc(b1-4)[Fuc(a1-6)]GlcNAc
# Method in brief: as §1
# [10] = biological target: Gal(b1-4)GlcNAc(b1-3)Gal(b1-4)GlcNAc(b1-3)Gal(b1-4)GlcNAc(b1-3)Gal(b1-4)GlcNAc(b1-3)Gal(b1-4)GlcNAc(b1-2)Man(a1-3)[Gal(b1-4)GlcNAc(b1-3)Gal(b1-4)GlcNAc(b1-3)Gal(b1-4)GlcNAc(b1-3)Gal(b1-4)GlcNAc(b1-3)Gal(b1-4)GlcNAc(b1-2)Man(a1-6)]Man(b1-4)GlcNAc(b1-4)GlcNAc
# Method in brief: as §1
# [11] = biological target: Gal(b1-4)GlcNAc(b1-3)Gal(b1-4)GlcNAc(b1-3)Gal(b1-4)GlcNAc(b1-3)Gal(b1-4)GlcNAc(b1-3)Gal(b1-4)GlcNAc(b1-2)Man(a1-3)[Gal(b1-4)GlcNAc(b1-3)Gal(b1-4)GlcNAc(b1-3)Gal(b1-4)GlcNAc(b1-3)Gal(b1-4)GlcNAc(b1-3)Gal(b1-4)GlcNAc(b1-2)Man(a1-6)]Man(b1-4)GlcNAc(b1-4)[Fuc(a1-6)]GlcNAc
# Method in brief: as §1
# [12] = biological target: Gal(b1-4)GlcNAc(b1-3)Gal(b1-4)GlcNAc(b1-3)Gal(b1-4)GlcNAc(b1-3)Gal(b1-4)GlcNAc(b1-3)Gal(b1-4)GlcNAc(b1-2)[Gal(b1-4)GlcNAc(b1-3)Gal(b1-4)GlcNAc(b1-3)Gal(b1-4)GlcNAc(b1-3)Gal(b1-4)GlcNAc(b1-3)Gal(b1-4)GlcNAc(b1-6)]Man(a1-6)[Gal(b1-4)GlcNAc(b1-3)Gal(b1-4)GlcNAc(b1-3)Gal(b1-4)GlcNAc(b1-3)Gal(b1-4)GlcNAc(b1-3)Gal(b1-4)GlcNAc(b1-2)Man(a1-3)]Man(b1-4)GlcNAc(b1-4)[Fuc(a1-6)]GlcNAc
# Method in brief: as §1
# [13] = biological target: Gal(b1-4)GlcNAc(b1-3)Gal(b1-4)GlcNAc(b1-3)Gal(b1-4)GlcNAc(b1-3)Gal(b1-4)GlcNAc(b1-3)Gal(b1-4)GlcNAc(b1-3)Gal(b1-4)GlcNAc(b1-2)Man(a1-3)[Gal(b1-4)GlcNAc(b1-3)Gal(b1-4)GlcNAc(b1-3)Gal(b1-4)GlcNAc(b1-3)Gal(b1-4)GlcNAc(b1-3)Gal(b1-4)GlcNAc(b1-3)Gal(b1-4)GlcNAc(b1-2)Man(a1-6)]Man(b1-4)GlcNAc(b1-4)GlcNAc
# Method in brief: as §1
# [14] = biological target: Gal(b1-4)GlcNAc(b1-3)Gal(b1-4)GlcNAc(b1-3)GalNAc
# Method in brief: as §1
# [15] = biological target: Gal(b1-4)GlcNAc(b1-3)Gal(b1-4)GlcNAc(b1-3)[Gal(b1-4)GlcNAc(b1-3)Gal(b1-4)GlcNAc(b1-6)]GalNAc
# Method in brief: as §1
# [16] = biological target: Gal(b1-4)GlcNAc(b1-3)Gal(b1-4)GlcNAc(b1-6)[Gal(b1-3)]GalNAc
# Method in brief: as §1
# [17] = biological target: Gal(b1-4)GlcNAc(b1-3)Gal(b1-4)[Fuc(a1-3)]GlcNAc(b1-3)Gal(b1-4)[Fuc(a1-3)]GlcNAc
# Method in brief: as §1
# [18] = biological target: Gal(b1-4)GlcNAc(b1-3)GalNAc
# Method in brief: as §1
# [19] = biological target: Gal(b1-4)GlcNAc(b1-3)[Fuc(a1-3)GlcNAc(b1-6)]Gal(b1-4)Glc
# Method in brief: as §1
# [20] = biological target: Gal(b1-4)GlcNAc(b1-3)[Gal(b1-4)GlcNAc(b1-6)]Gal(b1-4)GlcNAc
# Method in brief: as §1
# [21] = biological target: Gal(b1-4)GlcNAc(b1-3)[GlcNAc(b1-6)]Gal(b1-4)GlcNAc
# Method in brief: as §1
# [22] = biological target: Gal(b1-4)GlcNAc(b1-6)Gal(b1-4)GlcNAc
# Method in brief: as §1
# [23] = biological target: Gal(b1-4)GlcNAc(b1-6)GalNAc
# Method in brief: as §1
# [24] = biological target: Gal(b1-4)GlcNAc(b1-6)[Gal(b1-3)]GalNAc
# Method in brief: as §1
# [25] = biological target: Gal(b1-4)GlcNAc(b1-6)[Gal(b1-4)GlcNAc(b1-3)]GalNAc
# Method in brief: as §1
# Gal(b1-4)GlcNAc6P = biological target: Gal(b1-4)GlcNAc6P
# Method in brief: as §1
# Gal(b1-6)Gal = biological target: Gal(b1-6)Gal
# Method in brief: as §1
# Gal3S(b1-3)GalNAc = biological target: Gal3S(b1-3)GalNAc
# Method in brief: as §1
# Gal3S(b1-3)GlcNAc = biological target: Gal3S(b1-3)GlcNAc
# Method in brief: as §1
# [26] = biological target: Gal3S(b1-3)[Fuc(a1-4)]GlcNAc
# Method in brief: as §1
binder,measurement,setting,value
B1,glycan array binding signal (z-score),[1],0.688
same,glycan array binding signal (z-score),[2],-0.077
same,glycan array binding signal (z-score),[3],0.636
same,glycan array binding signal (z-score),[4],-0.179
same,glycan array binding signal (z-score),[5],-0.033
same,glycan array binding signal (z-score),[6],2.09
same,glycan array binding signal (z-score),[7],1.77
same,glycan array binding signal (z-score),[8],-0.764
same,glycan array binding signal (z-score),[9],0.046
same,glycan array binding signal (z-score),[10],-1.11
same,glycan array binding signal (z-score),[11],0.184
same,glycan array binding signal (z-score),[12],0.688
same,glycan array binding signal (z-score),[13],0.243
same,glycan array binding signal (z-score),[14],1.43
same,glycan array binding signal (z-score),[15],0.101
same,glycan array binding signal (z-score),[16],0.642
same,glycan array binding signal (z-score),[17],0.868
same,glycan array binding signal (z-score),[18],0.941
same,glycan array binding signal (z-score),[19],-0.192
same,glycan array binding signal (z-score),[20],1.15
same,glycan array binding signal (z-score),[21],-1.6
same,glycan array binding signal (z-score),[22],-0.256
same,glycan array binding signal (z-score),[23],2
same,glycan array binding signal (z-score),[24],-0.644
same,glycan array binding signal (z-score),[25],1.09
same,glycan array binding signal (z-score),Gal(b1-4)GlcNAc6P,0.257
same,glycan array binding signal (z-score),Gal(b1-6)Gal,1.48
same,glycan array binding signal (z-score),Gal3S(b1-3)GalNAc,0.856
same,glycan array binding signal (z-score),Gal3S(b1-3)GlcNAc,0.216
same,glycan array binding signal (z-score),[26],0.693

# Part of the list above in another layout.
binder | measurement | setting | value
B1 | glycan array binding signal (z-score) | [22] | -0.256
same | glycan array binding signal (z-score) | [23] | 2
